Assay results taken from patent US6670183B2, “88kDa tumorigenic growth factor and antagonists” (A & G Pharmaceutical, Inc., priority 1997, dated 2003).

Tested on: GP88 cell surface receptors on CCL64 cells
Assay: ^125I-GP88 binding to CCL64 cells, Scatchard analysis
Design: species or system mink
Method: Recombinant GP88 (rGP88) was iodinated by the chloramine T method at 4° C. Other known methods can also be applied. Briefly, 1 μg of GP88 was incubated for 2 min with ^125I Na (100 μCi) that had been preincubated for 90 seconds with 2 μg chloramine T. The reaction was quenched with the addition of 100 μl saturated tyrosine, 10 μl of a 1% solution of bovine serum albumin (BSA) and 2 μg of sodium metabisulfite. After addition of 100 μl PBS, the iodinated protein was separated from free Na^125I by gel filtration on a Sephadex-G50 column that had been preincubated with PBS containing 1% bovine serum albumin and then extensively washed with PBS to reduce non-specific binding. The labeled proteins were eluted with PBS and fractions monitored for radioactivity. Amount of incorporated radioactivity was estimated by TCA precipitation. Specific activity of ^125I-GP88 was typically 30-50 μCi/μg. […]
The example provided here describes binding assay with the mink lung epithelial cell line CCL64 but has also been applied to several cell lines including the 1246, PC cell lines and the mammary epithelial cell line C57MG. […] The cells were harvested by centrifugation, washed with culture medium and counted with a hemocytometer. […] Cell pellets were counted with a gamma counter. […]

B1: rGP88: recombinant mouse GP88 expressed in baculovirus infected Sf9 insect cells; iodinated as binding ligand (protein)
chain: TQCPDGQFCPVACCLDQGGANYSCCNPLLDTWPRITSHHLDGSCQTHGHCPAGYSCLLTVSGTSSCCPFSKGVSCGDGYHCCPQGFHCSADGKSCFQMSDNPLGAVQCPGSQFECPDSATCCIMVDGSWGCCPMPQASCCEDRVHCCPHGASCDLVHTRCVSPTGTHTLLKKFPAQKTNSAVSLPFSVVCPDAKTQCPDDSTCCELPTGKYGCCPMPNAICCSDHLHCCPQDTVCDLIQSKCLSKNYTTDLLTKLPGYPVKEVKCDMEVSCPEGYTCCRLNTGAWGCCPFAKAVCCDDHIHCCPAGFQCHTEKGTCEMGILQVGWMKKVIAPLRLPDPQILKSDTPCDDFTRCPTNNTCCKLNSGDWGCCPIPEAVCCSDNQHCCPQGFTCLAQGYCQKGDTMVAGLEKIPARQTTPLQIGDIGCDQHTSCPVGQTCCPSLKGSWACCQLPHAVCCEDRQHCCPAGYTCNVKARTCEKDVDFIQPPVLLTLGPKVGNVECGEGHFCHDNQTCCKDSAGVWACCPYLKGVCCRDGRHCCPGGFHCSARGTKCLRKKIPRWDMFLRDPVPRPLL
In the case of B1, the “sites/cell, high affinity class” value is reported as 560±170 sites/cell and the “sites/cell, low affinity class” value is reported as 17,000±5900 sites/cell.
